Measured values published in article PMC5392987.
Results are given in words; binding and its absence hold for the method and conditions named. Binding seen in cells or lysates may run through a third protein. Here binding means that the protein was enriched with, or labelled near, the bait; the list need not be complete.

T1: Symplekin (endogenous) (Drosophila melanogaster (endogenous in Dmel-2 cells)) (UniProt Q8MSU4)
T1 sequence: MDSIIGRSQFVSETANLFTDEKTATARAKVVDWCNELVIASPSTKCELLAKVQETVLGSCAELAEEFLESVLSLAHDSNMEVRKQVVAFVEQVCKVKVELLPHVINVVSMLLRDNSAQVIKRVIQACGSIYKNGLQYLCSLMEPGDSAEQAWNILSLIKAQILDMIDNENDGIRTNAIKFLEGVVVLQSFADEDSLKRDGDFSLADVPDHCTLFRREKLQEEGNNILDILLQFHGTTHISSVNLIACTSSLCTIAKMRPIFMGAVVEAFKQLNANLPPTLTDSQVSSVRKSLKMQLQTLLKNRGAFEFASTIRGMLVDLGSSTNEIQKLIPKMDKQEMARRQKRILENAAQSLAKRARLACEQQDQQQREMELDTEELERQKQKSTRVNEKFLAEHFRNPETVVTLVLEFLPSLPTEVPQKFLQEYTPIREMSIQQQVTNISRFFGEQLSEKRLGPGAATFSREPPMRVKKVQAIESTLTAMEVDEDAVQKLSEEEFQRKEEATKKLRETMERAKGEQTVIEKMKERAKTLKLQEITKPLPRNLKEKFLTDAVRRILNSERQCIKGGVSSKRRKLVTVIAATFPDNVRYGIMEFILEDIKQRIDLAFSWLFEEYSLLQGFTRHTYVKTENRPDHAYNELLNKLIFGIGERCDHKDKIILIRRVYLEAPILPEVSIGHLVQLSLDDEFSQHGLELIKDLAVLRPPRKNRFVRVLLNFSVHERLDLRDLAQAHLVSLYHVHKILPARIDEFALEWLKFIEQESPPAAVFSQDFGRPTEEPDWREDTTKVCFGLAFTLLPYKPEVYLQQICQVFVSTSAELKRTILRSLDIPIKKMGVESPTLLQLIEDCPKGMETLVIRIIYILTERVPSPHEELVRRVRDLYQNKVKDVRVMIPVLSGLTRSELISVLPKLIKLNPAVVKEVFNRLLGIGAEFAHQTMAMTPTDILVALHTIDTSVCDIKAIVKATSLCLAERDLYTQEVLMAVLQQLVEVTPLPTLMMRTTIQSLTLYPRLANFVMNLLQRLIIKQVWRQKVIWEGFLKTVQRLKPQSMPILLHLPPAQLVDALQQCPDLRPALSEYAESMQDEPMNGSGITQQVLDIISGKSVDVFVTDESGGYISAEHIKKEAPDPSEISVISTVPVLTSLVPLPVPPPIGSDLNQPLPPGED


Molecular target: T1, Symplekin (endogenous) (Drosophila melanogaster (endogenous in Dmel-2 cells))
Assay: affinity purification with mass spectrometry; endogenous Symplekin immunoprecipitated from crude Drosophila culture cell nuclear extract; bands cut from a Coomassie-stained SDS-PAGE gel and identified by MS; anti-Myc as control

| binding | Binder |
| --- | --- |
| binds | CPSF160 (endogenous) (protein, UniProt Q9V726 1-1455) MFSMCKQTHSATAVEFSIACRFFNNLDENLVVAGANVLKVYRIAPNVEASQRQKLNPSEMRLAPKMRLECLATYTLYGNVMSLQCVSLAGAMRDALLISFKDAKLSVLQHDPDTFALKTLSLHYFEEDDIRGGWTGRYFVPTVRVDPDSRCAVMLVYGKRLVVLPFRKDNSLDEIELADVKPIKKAPTAMVSRTPIMASYLIALRDLDEKIDNVLDIQFLHGYYEPTLLILYEPVRTCPGRIKVRSDTCVLVAISLNIQQRVHPIIWTVNSLPFDCLQVYPIQKPIGGCLVMTVNAVIYLNQSVPPYGVSLNSSADNSTAFPLKPQDGVRISLDCANFAFIDVDKLVISLRTGDLYVLTLCVDSMRTVRNFHFHKAAASVLTSCICVLHSEYIFLGSRLGNSLLLHFTEEDQSTVITLDEVEQQSEQQQRNLQDEDQNLEEIFDVDQLEMAPTQAKSRRIEDEELEVYGSGAKASVLQLRKFIFEVCDSLMNVAPINYMCAGERVEFEEDGVTLRPHAESLQDLKIELVAATGHSKNGALSVFVNCINPQIITSFELDGCLDVWTVFDDATKKSSRNDQHDFMLLSQRNSTLVLQTGQEINEIENTGFTVNQPTIFVGNLGQQRFIVQVTTRHVRLLQGTRLIQNVPIDVGSPVVQVSIADPYVCLRVLNGQVITLALRETRGTPRLAINKHTISSSPAVVAISAYKDLSGLFTVKGDDINLTGSSNSAFGHSFGGYMKAEPNMKVEDEEDLLYGDAGSAFKMNSMADLAKQSKQKNSDWWRRLLVQAKPSYWLVVARQSGTLEIYSMPDMKLVYLVNDVGNGSMVLTDAMEFVPISLTTQENSKAGIVQACMPQHANSPLPLELSVIGLGLNGERPLLLVRTRVELLIYQVFRYPKGHLKIRFRKMDQLNLLDQQPTHIDLDENDEQEEIESYQMQPKYVQKLRPFANVGGLSGVMVCGVNPCFVFLTFRGELRIHRLLGNGDVRSFAAFNNVNIPNGFLYFDTTYELKISVLPSYLSYDSVWPVRKVPLRCTPRQLVYHRENRVYCLITQTEEPMTKYYRFNGEDKELSEESRGERFIYPIGSQFEMVLISPETWEIVPDASITFEPWEHVTAFKIVKLSYEGTRSGLKEYLCIGTNFNYSEDITSRGNIHIYDIIEVVPEPGKPMTKFKIKEIFKKEQKGPVSAISDVLGFLVTGLGQKIYIWQLRDGDLIGVAFIDTNIYVHQIITVKSLIFIADVYKSISLLRFQEEYRTLSLASRDFNPLEVYGIEFMVDNSNLGFLVTDAERNIIVYMYQPEARESLGGQKLLRKADYHLGQVVNTMFRVQCHQKGLHQRQPFLYENKHFVVYGTLDGALGYCLPLPEKVYRRFLMLQNVLLSYQEHLCGLNPKEYRTLKSSKKQGINPSRCIIDGDLIWSYRLMANSERNEVAKKIGTRTEEILGDLLEIERLASVF |
| binds | CPSF6 (CG7185) (endogenous) (protein, UniProt Q9VSH4 1-652) MADVVLDLYAEDLDKDFAGQAQDEFGGDGVDLYDDIGGPTESAASGGGGGGTPSADGAAGPGSGEPGERNSGGPNGVYHQSSGSLTPTMNRRYQLYVGNLTWWTTDQDIANSLRDIGVSDLQEVKFFENRANGQSKGFSVISLGSESSLRAVLDQLPKKEMHGQAPVVTYPSKQALTQFESLQKTRPVPPPQQNGPPRGPAPPSMGGGPMPTGHPGGPQGGGPPGHPPRGMNSIMQPGQYRPQHMSQVPQVGGPNSGPPRMQPPMHPQGGLMGNQQPPPRYPSAQGQWPGQRPGGPRPGPPNGPPQRPMFQGGPMGMPVRGPAGPDWRRPPMHGGFPPQGPPRGLPPAPGPGGPHGAPAPHVNPAFFNQPGGPAQHPGMGGPPHGAPGPQPGMNMPPQQGMNMTPQHGPPPQFAQHGPRGPWPPPQGKPPGPFPDPQQMGPQLTEVEFEEVMSRNRTVSSSAIARAVSDAAAGEYSSAIETLVTAISLIKQSKVAHDERCKILISSLQDTLHGIEAKSYNRRERSRSRERSHRSRQRRERSTSRYRERSRERERDRDRERERDGGSYRERSRSRERERQAPDHYRDDSRSVRPRKSPEPVVAEAAEAPSSKRYYEDRERYRSSDRERRDRDRDRDRERERDRDRREEHRSRH |
